Experimental data published in patent US11066649B2, “Method for inducing human cholangiocyte differentiation” (INSERM (INSTITUT NATIONAL DE LA SANTÉ ET DE LA RECHERCHE …, priority 2014, dated 2021).
For at least one compound, name, drawing or mass did not settle the structure.

System: hESC-Chol
Assay: Cellular Ca2+ imaging: intracellular Ca2+ increase after hormonal stimulation
Type: cell-based, human
Conditions: hESC-Chol at day 23, Fura2-AM loaded
Procedure: At day 17, differentiating hESC-Chols were plated on glass coverslips coated with type I collagen and differentiated further into cholangiocyte-like cells as described above. At day 23 hESC-Chols were loaded with 3 μM Fura2-AM (Invitrogen, F1201) in BDM medium (37° C. and 5% CO2), for 45 minutes. Cells were then washed twice, and transferred into a perfusion chamber placed on the stage of a Zeiss inverted microscope (Axiovert 35). Intracellular calcium increases were measured after stimulation with somatostatin (Eumedica), ATP (Sigma), or Acetylcholine (Sigma). Calcium imaging was performed as described previously.^41 Fluorescence images were collected by a charge-coupled device camera (Princeton), digitized and integrated in real time by an image processor (Metafluor, Princeton).
To assess the functionality of our hESC-Chol, they analyzed their response to Adenosine triphosphate (ATP), acetylcholine and Somatostatin, known to induce Ca^2+ increase in biliary cells via P2Y1 receptors,^5 M3 muscarinic receptor (AChR M3),^25 Somatostatin receptor type 2 (SSTR2)^26 respectively, as well as type III Inositol 1,4,5-triphosphate (InsP3) receptor (InsP3R), an intracellular Ca^2+ channel, which stimulates release of Ca^2+ from intracellular stores into the cytosol.^27

**Q.** How did the “percentage of responsive cells (Ca2+ increase)” value turn out when C[C@H](N)C(=O)NCC(=O)N[C@H]1CSSC[C@@H](C(=O)O)NC(=O)[C@H](CO)NC(=O)[C@H]([C@@H](C)O)NC(=O)[C@H](Cc2ccccc2)NC(=O)[C@H]([C@@H](C)O)NC(=O)[C@H](CCCCN)NC(=O)[C@H](Cc2c[nH]c3ccccc23)NC(=O)[C@H](Cc2ccccc2)NC(=O)[C@H](Cc2ccccc2)NC(=O)[C@H](CC(N)=O)NC(=O)[C@H](CCCCN)NC1=O [Somatostatin] was run?
**A.** Its value is 31%±9.
